The other results are listed elsewhere or left out. The main result of the screen is listed elsewhere. These columns were measured beside it and carry no call. Most of these compounds were active or inconclusive in the main read-out, so they are no random draw. Potencies come from curve fits of mixed quality, noted in brackets.
Test: qHTS Assay for Lipid Storage Modulators in Drosophila S3 Cells;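 as to cell number change: cells counted by Cell Tracker Red CMTPX staining in the red channel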
Conditions: BODIPY lipid droplet fluorescence, 18-24 h; for cell number change: measured here: cell count max response, cells fed with added oleic acid
Procedure, shortened: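 Drosophila S3 cells loaded with oleic acid (400 uM, as added) and compounds at several concentrations; lipid droplets imaged by 488-nm laser-scanning cytometry, 500–530 nm intensity and object ratio to cell channel. Percent activity normalized to 20 uM Triacsin C.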

[1] = measured here: lipid fluorescence (Fed channel) AC50, cells fed with added oleic acid
[2] = measured here: cell number channel AC50, cells fed with added oleic acid

Compound	cell number change [%]	AC50 [1]	AC50 [2]
COc1ccc(NC(=O)c2cccnc2SC)cc1S(=O)(=O)N1CCCCC1	2.99	9.2 µM [rising, partial curve, poor fit]	–
O=C(NCCCO)C(=O)Nc1ccc2c(c1)N(S(=O)(=O)c1cccs1)CCC2	85.2	–	23.1 µM [rising, partial curve]
O=C(CN(Cc1ccc(F)cc1)C(=O)CCC(=O)Nc1nccs1)NCc1ccc(F)cc1	5.86	29.1 µM [rising, single point]	–
O=C(OCC(=O)N1CCCC1)c1ccc(S(=O)(=O)N2CCOCC2)cc1	-46.1	–	18.4 µM [falling, partial curve]
CCCCCc1ccc(-c2cn(Cc3cccc(OC)c3)nn2)cc1	10.7	–	–
CCCCCC(=O)Nc1nnc(CCc2ccccc2)s1	-3.65	29.1 µM [rising, single point]	–
CCOC(=O)c1sc(NC(=O)CC(C)c2ccccc2)nc1C (stereo not given)	-46	–	8.2 µM [falling, partial curve, poor fit]
O=C(NC1CCCCCC1)C1CCCN(S(=O)(=O)c2cnc[nH]2)C1 (stereo not given)	1.66	18.4 µM [rising, partial curve, poor fit]	–
CN1c2ccccc2N(C)C1c1c(O)ccc2ccccc12	25.7	0.0291 µM [rising, full curve, poor fit]	–
O=C(NCCN1C(=O)S/C(=C/c2ccccc2)C1=O)C1CC(=O)N(Cc2ccccc2)C1 (stereo not given)	11.1	29.1 µM [falling, partial curve, poor fit]	–
O=c1ccc2cc(S(=O)(=O)N3CCN(c4ccccc4F)CC3)ccc2o1	-1.25	0.366 µM [falling, partial curve, poor fit]	–
O=C(Nc1ccc2c(c1)OCCO2)c1c(F)cccc1F	-0.146	–	–
Cc1nn(Cc2ccccc2)c(C)c1/C=N/NC(=O)CNc1cccc(C(F)(F)F)c1	-19.1	29.1 µM [falling, single point]	–
CC(OC(=O)c1nn(C)c(=O)c2ccccc12)C(=O)Nc1ccc(S(N)(=O)=O)cc1 (stereo not given)	17.4	20.6 µM [rising, single point]	–
CC(C)Cn1c(=O)c2ccccc2c2ccccc2c1=O	-20.6	0.411 µM [rising, full curve, poor fit]	–
COc1ccccc1CNC(=O)CN1C(=O)NC2(CCCc3ccccc32)C1=O (stereo not given)	0.423	0.461 µM [falling, partial curve, poor fit]	0.366 µM [falling, partial curve, poor fit]
Cc1ccc2nc(SCC(=O)NCc3ccc(F)cc3)nc(=O)n2c1	41.7	13 µM [rising, partial curve]	10.3 µM [rising, partial curve]
Cc1cccc(C)c1NC(=O)CN(C)C(=O)C1CC(=O)N(c2cccc3ccccc23)C1 (stereo not given)	-13.9	4.11 µM [rising, partial curve, poor fit]	–
O=S(=O)(NC1CCCCCCC1)c1ccccc1F	10.4	2.91 µM [rising, single point]	–
COc1ccc(C2c3ccc4ccccc4c3Oc3ncn(CCO)c(=N)c32)cc1OC (stereo not given)	-9.72	0.651 µM [falling, full curve]	–

Single entries from the list:
cell number change [%], O=C(NC1CCCCCC1)C1CCCN(S(=O)(=O)c2cnc[nH]2)C1 (stereo not given) is entered as 1.66
AC50 [1], CC(C)Cn1c(=O)c2ccccc2c2ccccc2c1=O is entered as 0.411 µM [rising, full curve, poor fit]
AC50 [1], O=C(NCCN1C(=O)S/C(=C/c2ccccc2)C1=O)C1CC(=O)N(Cc2ccccc2)C1 (stereo not given) is entered as 29.1 µM [falling, partial curve, poor fit]

Continued:

Compound	cell number change [%]	AC50 [1]	AC50 [2]
CCOC(=O)N1CCC(NC(=O)C2CCC(CNS(=O)(=O)c3ccc(OC)cc3)CC2)CC1 (stereo not given)	9.34	1.64 µM [rising, partial curve]	–
COc1ccc(-c2cc(C(F)(F)F)n3nc(C(=O)N4CCCC4)cc3n2)cc1	-24.6	6.51 µM [rising, single point]	0.82 µM [falling, full curve, poor fit]
COCCn1c(=O)[nH]c2cc(C(=O)N3CCN(c4ccccc4OC)CC3)ccc2c1=O	-30.6	9.2 µM [falling, partial curve, poor fit]	1.64 µM [falling, full curve, poor fit]
CN(CC(=O)Nc1ccccc1Cl)C(=O)COC(=O)c1cc(S(=O)(=O)N(C)C)ccc1N1CCCC1	75	–	0.517 µM [rising, full curve]
CN1CCS/C1=C/C=C1/SC(=S)N(Cc2ccccc2)C1=O	-17	29.1 µM [falling, partial curve, poor fit]	–
O=c1[nH]c2ccc(S(=O)(=O)NCc3ccccc3)cc2[nH]1	50.4	18.4 µM [rising, partial curve]	13 µM [rising, single point]
Cc1ccc(NC(=O)CCCn2nc(C)c3c(C)n(-c4ccccc4)nc3c2=O)c(Cl)c1	18.7	–	–
CC(C)Cn1cnc2sc3c(c2c1=N)CCCC3	–	–	6.51 µM [falling, single point]
COc1ccc(C(=O)NNC(=O)COC(=O)c2sccc2C)cc1	-3.2	0.164 µM [rising, full curve, poor fit]	–
Cc1ccc(OCCNC(=O)c2cccc(C)c2)cc1	8.11	–	–
CNC(C)C(=O)NC(C(=O)N1CCCC1C(=O)NC1CCCc2ccccc21)C(C)C (stereo not given)	-31.2	–	13 µM [falling, partial curve]
CCCCNS(=O)(=O)c1ccc2nc(SCC(=O)c3ccc(C#N)cc3)[nH]c2c1	-25.8	2.31 µM [falling, full curve]	–
CN(C)c1ccc(CNCCC(Cc2ccccc2)c2ccco2)cc1 (stereo not given)	-72.7	20.6 µM [falling, single point]	18.4 µM [falling, single point]
C[N+]1(CC(O)COCC2COc3ccccc3O2)CCOCC1 (stereo not given)	-45.5	–	11.6 µM [falling, partial curve, poor fit]
CCCn1c(SC(C)C(=O)N2CCOCC2)nc2ccc(Br)cc2c1=O (stereo not given)	8.8	1.64 µM [rising, full curve]	–
CCN(CC)CCN(C(=O)CCOc1ccccc1)c1nc2ccc(F)cc2s1	-44.7	–	25.9 µM [falling, single point]
O=c1c2ccccc2cnn1-c1nc2ccccc2[nH]1	-13.4	–	6.51 µM [falling, single point]
NCC12CC3CC(C1)CC(c1ccc(Cl)cc1)(C3)C2	-36	29.1 µM [falling, single point]	18.4 µM [falling, single point]
COc1ccc(CN(C)C(=O)c2cccc(C(=O)N(C)Cc3ccc(OC)cc3)c2)cc1	–	0.58 µM [rising, single point]	–
COc1ccc(CNC(=O)CN2CCC(NC(=O)c3ccccc3C)CC2)cc1	19.2	29.1 µM [rising, single point]	–

Compound	cell number change [%]	AC50 [1]	AC50 [2]
Cc1cccc(C#N)c1NC1=CC(=O)CC(C)(C)C1	13.5	2.91 µM [rising, partial curve, poor fit]	–
CCOc1ccc(CO[C@@H]2O[C@H](CO)[C@@H](O)[C@H](O)[C@H]2NC(C)=O)cc1OC	28.4	–	–
O=C(Nc1ccccc1)C1CCCN(C(=O)c2ccc(Cl)cc2)C1 (stereo not given)	27.7	0.326 µM [rising, full curve, poor fit]	–
CCOc1ccc(NC(=O)CSc2nc3ccccc3c(=O)n2Cc2cccs2)cc1	22.1	0.0517 µM [rising, full curve, poor fit]	–
CN(CC(=O)Nc1ccc(Cl)cc1)CC(=O)Nc1cccc(Br)c1	-34.1	–	0.206 µM [falling, full curve, poor fit]
CC(=O)N1CCN(CC(=O)Nc2ccc([N+](=O)[O-])cc2Br)CC1	28.3	–	–
Cc1ccc(-c2cc(C(=O)OCn3nnc4ccccc4c3=O)c3ccccc3n2)cc1	3.29	1.16 µM [rising, partial curve]	–
O=C(NCCCN1CCOCC1)C(Sc1ccccc1)c1ccccc1 (stereo not given)	-8.92	2.31 µM [falling, full curve]	–
Cc1cc([N+](=O)[O-])nn1CCCC(=O)Nc1ccc(Cl)cc1Cl	5.55	–	–
CC1CCC(NS(=O)(=O)c2ccc3c(c2)n(C)c(=O)c(=O)n3C)CC1 (stereo not given)	-16	–	–
Cc1cnc(C(=O)OCC(=O)Nc2ccc(C)c(S(=O)(=O)N3CCCCCC3)c2)cn1	23.9	6.51 µM [falling, single point]	–
NC(=O)c1c(-c2ccc(Cl)cc2Cl)csc1NC(=O)Cc1ccccc1	-19.3	29.1 µM [falling, single point]	–
CC(=O)Nc1nc2cc3c(cc2s1)OCO3	-30.9	29.1 µM [rising, single point]	–
COc1ccc(C(=O)NC2CC2)cc1OC1CCN(Cc2ccc(NC(C)=O)cc2)CC1	9.72	–	–
O=S(=O)(Nc1ccccc1N1CCCCC1)c1ccc(Cl)s1	-1.01	–	–
CCCCN(CCCC)C(=O)c1c[nH]c2ccc(S(=O)(=O)Nc3cccc(Cl)c3C)cc2c1=O	40.2	–	16.4 µM [rising, single point]
O=C(CNC(=S)NC(=O)C1CCCCC1)c1ccccc1	93.9	23.1 µM [rising, partial curve]	3.26 µM [rising, full curve]
Cc1ccc(C(=O)Nc2cnc3ccccn3c2=O)cc1	6.86	9.2 µM [rising, partial curve]	–
Cc1cc(/C=N/NC(=O)c2cccc([N+](=O)[O-])c2)c(C)n1-c1ccc(Cl)cc1Cl	8.51	–	–
CCOC(=O)C1=C(N)Oc2cc(O)ccc2C1c1cccc([N+](=O)[O-])c1 (stereo not given)	-28.4	23.1 µM [falling, single point]	–

From PubChem BioAssay AID2685 (National Center for Advancing Translational Sciences (NCATS), 2010)
